The results in this text go back to article PMC6759994.

No constants are given. Whether binding was seen depends on the method and setting. Binding seen in cells or lysates may run through a third protein. These calls come from enrichment with a bait or labelling near it, and not all partners need be listed.

In this experiment the target is RNase J2 with a C-terminal 3x FLAG tag, chromosomally encoded in S. mutans (strain J2F) (Streptococcus mutans UA159). Kind of experiment: affinity purification with mass spectrometry; mid-log S. mutans crosslinked in vivo with formaldehyde; cytoplasmic and membrane fractions; RNase J2-3x FLAG purified on anti-FLAG M2 affinity gel, eluted with 3x FLAG peptide; LC/MS; enrichment against the untagged wild type.

B1: Cell division GTPase FtsZ, endogenous in S. mutans (protein, UniProt Q8DVD9 1-434)
chain: MAFSFDAASVQGAVIKVIGVGGGGGNAINRMIDEGVAGVEFIAANTDIQALSSSKAETVIQLGPKLTRGLGAGGQPEIGRKAAEESEEALTEALTGADMVFITAGMGGGSGTGAAPVIARIAKGLGSLTVAVVTRPFGFEGSKRGNYAIEGINELRDEVDTLLIISNNNLLEIVDKKTPLLEALSEADNVLRQGVQGITDLITSPGLINLDFADVKTVMASKGNALMGIGIGTGEERVVEAARKAIYSPLLETTIDGAEDVIVNVTGGLDMTLTEAEEASEIVNQAAGHGVNIWLGTSIDDSMKDEIRVTVVATGVRPDKADQVSGIRRQASSYTQPRAQQQAPSSNSAQPNFERRQNFDFDLNESPEMPAAEPQQTQSSSEPQQSAFGDWNLRRENIARPTEGEIDSQLKMSSFSADSDDDDELETPPFFKNR
Regarding B1, the binding result was “binds weakly”.

B2: RNA helicase (CshA), endogenous in S. mutans (enzyme, UniProt Q8DV90 1-517)
chain: MKFTELHLAEDILSAVAKVGFVEPSPIQELTIPLALEGKDVIGQAQTGTGKTAAFGLPTLNKIDVTNNVVQALVIAPTRELAVQSQEELFRFGREKKVKVRSVYGGSSIEKQIKALKSGAHIVVGTPGRLLDLIKRKALKLNHVETLILDEADEMLNMGFLEDIEAIISRVPETRQTLLFSATMPDAIKRIGVKFMKEPEHVKIAAKELTTDLVDQYYIRVKENEKFDTMTRLMDVEQPELSIVFGRTKRRVDELTRGLKLRGYRAEGIHGDLDQGKRLRVLRDFKNDNLDILVATDVAARGLDISGVTHVYNYDIPQDPESYVHRIGRTGRAGKHGQSITFVAPNEMGYLQIIEKLTKKRMKGMKPATAQEAFQASKKVALKKIERDFADEKIRSNFDKFTKDAEKLAAEFSPEELAQYILTLTVQDPEMLPKVEIAREKPLPFKFAGKGKGGNRRREDRRGGRDSRRNHRDGGRREFKRTSNKNRKDFENKSNKRPHRTSSEKKSGFTIRNKGDR
As for B2, the binding entry is on record as “binds”.
